For this experiment, the system named is iCell Cardiomyocytes (hIPS cardiomyocytes). Briefly: Calcium transient dynamics in cardiomyocytes derived from human stem cells by Kinetic Image Cytometry. It counts as cell-based. The settings on record: reference compounds at 1 uM; under each experimental condition; 0.1% DMSO vehicle.

Turning to `COC(=O)C1=C(C)NC(C)=C(C(=O)OC)C1c1ccccc1[N+](=O)[O-]` [nifedipine, reference compound], the “CTD75 relative to vehicle control” value is ≤ 85 % of vehicle control.

The record behind these values is US20160207893A1, “NOVEL CALCIUM MODULATORS” (Myotherix, Inc., priority 2014, published 2016).
